For four molecules, binding results are on record in publication PMC7804450.

Amino acid sequences for entries named in this document (tags omitted).
UniProt P49815: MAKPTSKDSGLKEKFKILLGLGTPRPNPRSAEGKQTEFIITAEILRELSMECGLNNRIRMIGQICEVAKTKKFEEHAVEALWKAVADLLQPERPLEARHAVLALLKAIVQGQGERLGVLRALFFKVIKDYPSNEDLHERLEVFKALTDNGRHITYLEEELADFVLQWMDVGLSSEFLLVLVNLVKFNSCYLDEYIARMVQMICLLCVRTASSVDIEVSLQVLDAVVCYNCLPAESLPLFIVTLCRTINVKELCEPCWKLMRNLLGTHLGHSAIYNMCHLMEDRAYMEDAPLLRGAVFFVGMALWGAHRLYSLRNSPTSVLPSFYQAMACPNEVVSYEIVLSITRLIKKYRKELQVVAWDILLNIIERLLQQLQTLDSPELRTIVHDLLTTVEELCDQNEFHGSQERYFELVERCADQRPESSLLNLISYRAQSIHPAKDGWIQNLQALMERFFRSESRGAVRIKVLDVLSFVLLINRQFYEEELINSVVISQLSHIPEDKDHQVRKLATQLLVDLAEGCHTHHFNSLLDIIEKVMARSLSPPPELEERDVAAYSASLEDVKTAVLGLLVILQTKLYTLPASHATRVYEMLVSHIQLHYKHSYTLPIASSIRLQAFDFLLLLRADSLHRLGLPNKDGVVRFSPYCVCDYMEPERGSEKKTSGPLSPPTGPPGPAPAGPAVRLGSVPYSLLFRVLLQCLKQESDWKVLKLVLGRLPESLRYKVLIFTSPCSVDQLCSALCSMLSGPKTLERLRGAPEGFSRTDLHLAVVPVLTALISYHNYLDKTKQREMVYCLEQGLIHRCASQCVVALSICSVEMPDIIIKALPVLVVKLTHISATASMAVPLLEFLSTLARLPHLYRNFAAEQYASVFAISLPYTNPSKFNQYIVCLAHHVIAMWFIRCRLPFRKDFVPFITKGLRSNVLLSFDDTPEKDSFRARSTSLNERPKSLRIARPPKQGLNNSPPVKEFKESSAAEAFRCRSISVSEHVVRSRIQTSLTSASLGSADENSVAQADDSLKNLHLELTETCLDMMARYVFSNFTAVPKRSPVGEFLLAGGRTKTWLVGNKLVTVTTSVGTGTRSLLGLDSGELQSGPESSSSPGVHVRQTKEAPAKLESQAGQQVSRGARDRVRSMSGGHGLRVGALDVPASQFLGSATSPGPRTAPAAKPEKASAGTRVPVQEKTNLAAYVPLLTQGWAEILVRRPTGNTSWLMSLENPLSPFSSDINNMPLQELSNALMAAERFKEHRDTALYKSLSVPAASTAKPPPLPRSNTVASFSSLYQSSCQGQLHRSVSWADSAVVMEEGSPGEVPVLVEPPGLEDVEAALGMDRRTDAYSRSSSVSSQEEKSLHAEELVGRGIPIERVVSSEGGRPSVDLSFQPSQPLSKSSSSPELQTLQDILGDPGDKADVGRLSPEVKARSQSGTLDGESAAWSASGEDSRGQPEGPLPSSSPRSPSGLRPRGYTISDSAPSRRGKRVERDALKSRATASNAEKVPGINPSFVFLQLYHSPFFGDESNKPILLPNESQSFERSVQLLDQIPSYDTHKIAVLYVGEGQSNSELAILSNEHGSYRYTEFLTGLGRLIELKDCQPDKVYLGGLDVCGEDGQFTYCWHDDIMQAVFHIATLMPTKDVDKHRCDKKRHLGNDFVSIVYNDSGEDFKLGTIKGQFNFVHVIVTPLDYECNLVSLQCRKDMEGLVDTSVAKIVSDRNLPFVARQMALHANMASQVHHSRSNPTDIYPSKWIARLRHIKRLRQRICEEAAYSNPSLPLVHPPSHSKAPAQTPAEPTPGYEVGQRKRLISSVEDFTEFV

Assay [1] has as its target T1, full-length TSC1 (immunoprecipitation assays) (human) (UniProt Q92574).
T1 sequence: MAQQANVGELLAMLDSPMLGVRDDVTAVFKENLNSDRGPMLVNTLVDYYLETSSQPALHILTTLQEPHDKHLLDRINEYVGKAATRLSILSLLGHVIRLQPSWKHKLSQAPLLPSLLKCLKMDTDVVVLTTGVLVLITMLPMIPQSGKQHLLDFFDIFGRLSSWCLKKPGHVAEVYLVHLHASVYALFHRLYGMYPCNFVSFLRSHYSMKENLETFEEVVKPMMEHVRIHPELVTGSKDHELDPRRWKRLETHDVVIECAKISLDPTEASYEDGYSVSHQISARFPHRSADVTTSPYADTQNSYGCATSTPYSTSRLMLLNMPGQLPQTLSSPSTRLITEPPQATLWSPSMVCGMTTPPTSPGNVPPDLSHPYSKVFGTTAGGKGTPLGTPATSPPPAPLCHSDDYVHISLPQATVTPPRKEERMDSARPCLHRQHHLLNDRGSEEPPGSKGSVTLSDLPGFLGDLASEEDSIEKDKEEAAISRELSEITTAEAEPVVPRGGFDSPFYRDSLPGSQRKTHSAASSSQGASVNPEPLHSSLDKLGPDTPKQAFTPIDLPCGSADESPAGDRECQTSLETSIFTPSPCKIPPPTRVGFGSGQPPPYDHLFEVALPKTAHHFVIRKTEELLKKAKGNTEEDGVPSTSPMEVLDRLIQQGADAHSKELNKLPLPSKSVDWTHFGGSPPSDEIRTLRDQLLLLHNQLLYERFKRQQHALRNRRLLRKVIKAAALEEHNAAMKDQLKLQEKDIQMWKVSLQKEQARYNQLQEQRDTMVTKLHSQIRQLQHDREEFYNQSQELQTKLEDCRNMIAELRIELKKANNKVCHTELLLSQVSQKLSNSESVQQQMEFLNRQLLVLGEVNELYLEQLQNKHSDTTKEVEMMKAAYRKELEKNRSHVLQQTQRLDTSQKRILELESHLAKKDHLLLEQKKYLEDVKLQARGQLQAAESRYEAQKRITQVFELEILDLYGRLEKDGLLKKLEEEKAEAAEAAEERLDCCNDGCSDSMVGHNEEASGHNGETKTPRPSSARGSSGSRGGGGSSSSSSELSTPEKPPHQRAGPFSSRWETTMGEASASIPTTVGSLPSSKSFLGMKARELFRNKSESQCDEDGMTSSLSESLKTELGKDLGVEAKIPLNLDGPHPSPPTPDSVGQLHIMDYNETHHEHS
Briefly: co-IP; immunoprecipitation assays of Supplementary Fig. 6f, g, i; host, tags and bait not told in the text shown.

Assay [2] has as its target TSC2 (immunoprecipitation assays) (human), P49815. The assay is described as above. To be noted: remark: other sources report otherwise.
The target in assay [3] is tuberous sclerosis complex 2 (TSC2), human, subunit of the purified TSC complex (human), P49815. Kind of assay: cryo-EM structure; human TSC complex (TSC1, TSC2, TBC1D7) co-expressed in Expi293F, purified, cross-linked by Grafix (glutaraldehyde); single particle reconstruction, 4.4 Å overall, core 3.6 Å, wings 3.9 and 4.1 Å; both purified. The following applies: remark: other sources report otherwise.

Assay [4] has as its target TSC2 (immunoprecipitation assays) (human) (UniProt P49815). Briefly: co-IP; immunoprecipitation assays of Supplementary Fig. 6f, g, i; host, tags and bait not told in the text shown.

No constants are given. Whether binding was seen depends on the method and setting. For some of these results: In cells and extracts the contact can be indirect. Some binding calls cover weakened binding; strength is not graded here.

B1: TBC1D7 (immunoprecipitation assay) (protein, UniProt Q9P0N9 1-293)
chain: MTEDSQRNFRSVYYEKVGFRGVEEKKSLEILLKDDRLDTEKLCTFSQRFPLPSMYRALVWKVLLGILPPHHESHAKVMMYRKEQYLDVLHALKVVRFVSDATPQAEVYLRMYQLESGKLPRSPSFPLEPDDEVFLAIAKAMEEMVEDSVDCYWITRRFVNQLNTKYRDSLPQLPKAFEQYLNLEDGRLLTHLRMCSAAPKLPYDLWFKRCFAGCLPESSLQRVWDKVVSGSCKILVFVAVEILLTFKIKVMALNSAEKITKFLENIPQDSSDAIVSKAIDLWHKHCGTPVHSS
Consider B1, for which, in assay [1], the binding result was “binds”.

B2: TBC1D7 (immunoprecipitation assay), Q9P0N9 1-293 (protein)
chain: B1 chain
With B2, in assay [2], the binding result is “no binding”.

B3: Tre2-Bub2-Cdc16-1 domain family member 7 (TBC1D7), human, subunit of the purified TSC complex, Q9P0N9 1-293 (protein)
chain: B1 chain
B3: the binding entry in assay [3] was “no binding”.

B4: full-length TSC1 (immunoprecipitation assays) (protein, UniProt Q92574 1-1164)
chain: T1 sequence
Consider B4, for which the binding entry in assay [4] is “binds”.
